Results are given in words; binding and its absence hold for the method and conditions named. Binding seen in cells or lysates may run through a third protein. A yes stands for co-enrichment or nearness to the bait. Other partners may have been found.
Biological target: Myelin basic protein, classical 18.5 kDa isoform, fused to FLAG-tag and TurboID (MBP_Flag_TurboID) (human) (UniProt P02686)
Test: proximity labelling; TurboID fused to the bait in transfected HEK293T cells; 50 uM biotin for 30 min (methods; 15 min in the results); RIPA lysis; streptavidin-agarose; SDS-PAGE, in-gel trypsin, LC-MS/MS; hits in at least two repeats and two or more times over the Flag_TurboID control; triplicates

Sequences of proteins named here, by UniProt entry; tags and fusion partners are left off. Residues count along the entry.
UniProt P02686, residues 134-304: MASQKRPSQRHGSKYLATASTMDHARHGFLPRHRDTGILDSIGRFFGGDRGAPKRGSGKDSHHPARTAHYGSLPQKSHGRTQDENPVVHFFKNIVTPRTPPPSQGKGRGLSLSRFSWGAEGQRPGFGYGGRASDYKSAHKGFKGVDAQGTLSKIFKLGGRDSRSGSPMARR
UniProt P26038: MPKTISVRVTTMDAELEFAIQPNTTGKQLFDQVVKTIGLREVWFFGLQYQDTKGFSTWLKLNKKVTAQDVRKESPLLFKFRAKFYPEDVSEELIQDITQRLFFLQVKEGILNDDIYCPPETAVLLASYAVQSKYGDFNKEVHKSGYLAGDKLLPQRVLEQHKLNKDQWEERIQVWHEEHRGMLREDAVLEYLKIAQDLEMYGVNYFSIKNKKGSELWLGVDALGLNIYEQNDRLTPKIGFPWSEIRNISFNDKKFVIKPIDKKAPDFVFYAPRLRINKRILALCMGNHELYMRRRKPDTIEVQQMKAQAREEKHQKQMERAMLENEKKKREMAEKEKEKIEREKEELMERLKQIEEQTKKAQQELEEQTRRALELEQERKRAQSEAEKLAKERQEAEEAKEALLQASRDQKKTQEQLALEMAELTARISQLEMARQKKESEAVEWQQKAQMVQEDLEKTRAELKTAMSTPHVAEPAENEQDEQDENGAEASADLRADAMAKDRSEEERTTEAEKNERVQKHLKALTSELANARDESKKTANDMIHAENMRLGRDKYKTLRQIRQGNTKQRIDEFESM
UniProt Q14204: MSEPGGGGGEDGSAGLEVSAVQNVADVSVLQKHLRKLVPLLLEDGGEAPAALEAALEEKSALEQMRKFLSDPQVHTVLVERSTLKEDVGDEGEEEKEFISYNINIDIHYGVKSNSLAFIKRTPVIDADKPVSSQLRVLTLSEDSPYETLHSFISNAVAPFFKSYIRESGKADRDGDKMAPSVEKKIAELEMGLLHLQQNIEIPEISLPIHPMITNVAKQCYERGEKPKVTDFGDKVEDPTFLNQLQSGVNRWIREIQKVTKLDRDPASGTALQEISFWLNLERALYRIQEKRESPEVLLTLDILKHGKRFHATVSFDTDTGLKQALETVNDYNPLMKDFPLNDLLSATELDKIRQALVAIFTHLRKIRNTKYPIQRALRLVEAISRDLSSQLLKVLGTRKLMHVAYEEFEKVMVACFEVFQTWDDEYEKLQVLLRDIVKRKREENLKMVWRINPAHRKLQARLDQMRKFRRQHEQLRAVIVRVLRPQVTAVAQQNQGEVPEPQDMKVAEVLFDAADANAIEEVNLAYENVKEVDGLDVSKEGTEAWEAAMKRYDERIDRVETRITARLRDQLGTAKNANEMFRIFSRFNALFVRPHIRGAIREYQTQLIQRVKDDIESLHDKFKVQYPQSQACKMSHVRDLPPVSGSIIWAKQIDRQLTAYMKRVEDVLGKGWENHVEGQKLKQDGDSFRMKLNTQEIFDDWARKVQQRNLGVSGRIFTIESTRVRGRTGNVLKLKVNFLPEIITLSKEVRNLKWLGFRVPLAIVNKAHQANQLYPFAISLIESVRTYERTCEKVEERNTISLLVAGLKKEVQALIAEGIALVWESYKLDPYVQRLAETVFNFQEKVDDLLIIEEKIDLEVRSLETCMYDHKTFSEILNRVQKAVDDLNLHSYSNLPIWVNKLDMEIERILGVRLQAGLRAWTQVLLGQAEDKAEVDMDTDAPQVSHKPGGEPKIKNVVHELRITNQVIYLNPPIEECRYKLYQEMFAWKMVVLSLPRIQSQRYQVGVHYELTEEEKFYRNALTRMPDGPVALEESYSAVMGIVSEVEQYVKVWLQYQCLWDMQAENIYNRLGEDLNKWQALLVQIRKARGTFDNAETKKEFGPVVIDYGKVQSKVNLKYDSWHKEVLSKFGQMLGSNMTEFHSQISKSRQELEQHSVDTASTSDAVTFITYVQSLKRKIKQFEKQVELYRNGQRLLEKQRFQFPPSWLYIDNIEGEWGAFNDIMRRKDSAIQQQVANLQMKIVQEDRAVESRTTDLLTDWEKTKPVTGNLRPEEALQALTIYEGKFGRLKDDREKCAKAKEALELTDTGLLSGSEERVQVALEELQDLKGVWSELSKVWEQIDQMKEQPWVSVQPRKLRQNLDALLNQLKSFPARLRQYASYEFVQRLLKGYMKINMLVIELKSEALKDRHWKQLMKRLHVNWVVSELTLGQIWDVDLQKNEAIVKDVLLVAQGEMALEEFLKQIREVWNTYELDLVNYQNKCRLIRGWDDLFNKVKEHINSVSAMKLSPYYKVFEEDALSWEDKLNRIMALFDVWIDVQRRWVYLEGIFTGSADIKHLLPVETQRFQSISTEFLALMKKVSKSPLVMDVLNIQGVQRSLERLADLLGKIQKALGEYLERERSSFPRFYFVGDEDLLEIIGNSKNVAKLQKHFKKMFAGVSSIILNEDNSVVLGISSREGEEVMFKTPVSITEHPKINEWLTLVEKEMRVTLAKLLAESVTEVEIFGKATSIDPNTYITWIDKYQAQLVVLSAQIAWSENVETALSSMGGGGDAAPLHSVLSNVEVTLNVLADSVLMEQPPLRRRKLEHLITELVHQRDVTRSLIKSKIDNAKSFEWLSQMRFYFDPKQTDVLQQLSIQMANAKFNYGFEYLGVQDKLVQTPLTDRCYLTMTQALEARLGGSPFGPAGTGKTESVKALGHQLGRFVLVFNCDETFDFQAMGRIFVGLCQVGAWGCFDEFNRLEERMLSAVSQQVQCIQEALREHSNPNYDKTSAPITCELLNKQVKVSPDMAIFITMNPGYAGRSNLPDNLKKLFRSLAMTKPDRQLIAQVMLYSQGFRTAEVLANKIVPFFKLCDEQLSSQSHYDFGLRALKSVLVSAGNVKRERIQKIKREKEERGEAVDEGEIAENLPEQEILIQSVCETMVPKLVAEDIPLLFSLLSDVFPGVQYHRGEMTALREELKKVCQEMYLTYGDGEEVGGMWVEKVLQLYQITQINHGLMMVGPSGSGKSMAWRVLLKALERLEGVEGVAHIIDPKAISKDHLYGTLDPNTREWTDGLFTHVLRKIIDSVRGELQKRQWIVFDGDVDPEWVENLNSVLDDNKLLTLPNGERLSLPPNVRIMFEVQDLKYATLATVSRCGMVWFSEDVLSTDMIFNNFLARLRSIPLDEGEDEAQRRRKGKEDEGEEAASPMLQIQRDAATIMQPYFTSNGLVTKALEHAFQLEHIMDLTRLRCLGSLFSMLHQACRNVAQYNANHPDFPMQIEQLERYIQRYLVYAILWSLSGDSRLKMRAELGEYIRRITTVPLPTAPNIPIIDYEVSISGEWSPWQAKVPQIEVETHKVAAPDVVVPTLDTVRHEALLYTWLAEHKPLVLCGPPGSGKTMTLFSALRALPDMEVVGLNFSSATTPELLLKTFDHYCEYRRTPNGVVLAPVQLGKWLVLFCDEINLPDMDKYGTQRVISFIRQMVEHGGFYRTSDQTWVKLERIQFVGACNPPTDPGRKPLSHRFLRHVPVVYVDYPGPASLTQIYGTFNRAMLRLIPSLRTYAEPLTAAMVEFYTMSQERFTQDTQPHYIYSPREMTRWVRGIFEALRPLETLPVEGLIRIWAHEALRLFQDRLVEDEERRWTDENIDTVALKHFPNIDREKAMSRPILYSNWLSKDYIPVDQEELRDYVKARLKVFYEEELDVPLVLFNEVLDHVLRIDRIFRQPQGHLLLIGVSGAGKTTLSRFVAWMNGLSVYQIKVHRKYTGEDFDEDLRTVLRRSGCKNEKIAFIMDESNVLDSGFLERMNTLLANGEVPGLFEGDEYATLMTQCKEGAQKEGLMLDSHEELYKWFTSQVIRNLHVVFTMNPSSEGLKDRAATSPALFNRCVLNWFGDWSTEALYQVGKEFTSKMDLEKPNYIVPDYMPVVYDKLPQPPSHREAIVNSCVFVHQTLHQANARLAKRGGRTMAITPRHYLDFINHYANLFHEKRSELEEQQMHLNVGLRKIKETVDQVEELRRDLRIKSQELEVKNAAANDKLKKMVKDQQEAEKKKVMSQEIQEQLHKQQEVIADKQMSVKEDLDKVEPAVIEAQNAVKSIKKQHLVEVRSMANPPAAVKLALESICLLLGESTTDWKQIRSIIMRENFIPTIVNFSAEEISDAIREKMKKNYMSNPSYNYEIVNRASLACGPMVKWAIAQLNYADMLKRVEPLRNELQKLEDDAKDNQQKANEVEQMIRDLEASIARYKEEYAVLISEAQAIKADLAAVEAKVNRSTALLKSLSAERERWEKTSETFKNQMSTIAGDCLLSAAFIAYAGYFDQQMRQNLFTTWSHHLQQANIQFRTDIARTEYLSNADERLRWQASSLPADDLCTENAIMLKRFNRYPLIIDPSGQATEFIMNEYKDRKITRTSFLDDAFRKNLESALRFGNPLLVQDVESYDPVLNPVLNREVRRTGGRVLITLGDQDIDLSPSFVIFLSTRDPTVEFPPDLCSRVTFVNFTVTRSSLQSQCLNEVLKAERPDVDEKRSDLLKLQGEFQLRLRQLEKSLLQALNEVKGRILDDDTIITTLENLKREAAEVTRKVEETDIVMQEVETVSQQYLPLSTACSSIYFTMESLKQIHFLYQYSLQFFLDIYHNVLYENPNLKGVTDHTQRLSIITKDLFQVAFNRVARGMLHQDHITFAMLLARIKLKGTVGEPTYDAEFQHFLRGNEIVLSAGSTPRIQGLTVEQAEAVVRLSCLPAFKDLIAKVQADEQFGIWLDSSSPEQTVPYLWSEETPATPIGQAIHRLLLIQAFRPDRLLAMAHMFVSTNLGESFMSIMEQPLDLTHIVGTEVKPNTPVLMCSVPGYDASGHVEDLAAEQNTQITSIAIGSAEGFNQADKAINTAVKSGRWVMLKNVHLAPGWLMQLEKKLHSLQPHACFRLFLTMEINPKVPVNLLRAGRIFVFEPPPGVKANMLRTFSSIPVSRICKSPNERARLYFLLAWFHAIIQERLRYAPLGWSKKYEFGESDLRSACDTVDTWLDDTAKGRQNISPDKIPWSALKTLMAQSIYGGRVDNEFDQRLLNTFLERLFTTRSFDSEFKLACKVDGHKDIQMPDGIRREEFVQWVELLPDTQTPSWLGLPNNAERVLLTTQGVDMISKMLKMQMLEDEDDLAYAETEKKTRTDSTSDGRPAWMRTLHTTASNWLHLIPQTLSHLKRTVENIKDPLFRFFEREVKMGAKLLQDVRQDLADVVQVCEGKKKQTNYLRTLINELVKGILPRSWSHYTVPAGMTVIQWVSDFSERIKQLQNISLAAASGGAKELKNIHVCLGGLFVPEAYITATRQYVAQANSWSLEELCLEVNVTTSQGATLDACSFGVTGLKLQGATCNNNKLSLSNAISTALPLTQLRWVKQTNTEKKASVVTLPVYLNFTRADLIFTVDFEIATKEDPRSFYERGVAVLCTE
UniProt O00161: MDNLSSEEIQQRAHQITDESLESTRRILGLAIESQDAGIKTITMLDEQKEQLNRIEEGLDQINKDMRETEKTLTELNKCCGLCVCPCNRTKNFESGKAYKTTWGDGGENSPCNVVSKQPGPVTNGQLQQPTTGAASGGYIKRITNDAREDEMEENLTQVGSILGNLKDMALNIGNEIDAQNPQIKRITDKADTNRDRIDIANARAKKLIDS

Moesin (from UniProt P26038 1-577) was tested, and the binding was “binds”.

With “Cytoplasmic dynein 1 heavy chain 1 (from UniProt Q14204 1-4646)” the binding was “binds”.

With “Synaptosomal-associated protein 23 (from UniProt O00161 1-211)” the binding was “binds”.

B1: Occludin (protein, UniProt Q16625 1-522)
chain: MSSRPLESPPPYRPDEFKPNHYAPSNDIYGGEMHVRPMLSQPAYSFYPEDEILHFYKWTSPPGVIRILSMLIIVMCIAIFACVASTLAWDRGYGTSLLGGSVGYPYGGSGFGSYGSGYGYGYGYGYGYGGYTDPRAAKGFMLAMAAFCFIAALVIFVTSVIRSEMSRTRRYYLSVIIVSAILGIMVFIATIVYIMGVNPTAQSSGSLYGSQIYALCNQFYTPAATGLYVDQYLYHYCVVDPQEAIAIVLGFMIIVAFALIIFFAVKTRRKMDRYDKSNILWDKEHIYDEQPPNVEEWVKNVSAGTQDVPSPPSDYVERVDSPMAYSSNGKVNDKRFYPESSYKSTPVPEVVQELPLTSPVDDFRQPRYSSGGNFETPSKRAPAKGRAGRSKRTEQDHYETDYTTGGESCDELEEDWIREYPPITSDQQRQLYKRNFDTGLQEYKSLQSELDEINKELSRLDKELDDYREESEEYMAAADEYNRLKQVKGSADYKSKKNHCKQLKSKLSHIKKMVGDYDRQKT
With B1 the binding was “binds”.

B2: Ephrin-B1 (protein, UniProt P98172 28-346)
chain: LAKNLEPVSWSSLNPKFLSGKGLVIYPKIGDKLDIICPRAEAGRPYEYYKLYLVRPEQAAACSTVLDPNVLVTCNRPEQEIRFTIKFQEFSPNYMGLEFKKHHDYYITSTSNGSLEGLENREGGVCRTRTMKIIMKVGQDPNAVTPEQLTTSRPSKEADNTVKMATQAPGSRGSLGDSDGKHETVNQEEKSGPGASGGSSGDPDGFFNSKVALFAAVGAGCVIFLLIIIFLTVLLLKLRKRHRKHTQQRAAALSLSTLASPKGGSGTAGTEPSDIIIPLRTTENNYCPHYEKVSGDYGHPVYIVQEMPPQSPANIYYKV
B2 was tested, and the binding was “binds”.

B3: Myelin protein zero-like protein 1 (protein, UniProt O95297 36-269)
chain: SALEVYTPKEIFVANGTQGKLTCKFKSTSTTGGLTSVSWSFQPEGADTTVSFFHYSQGQVYLGNYPPFKDRISWAGDLDKKDASINIENMQFIHNGTYICDVKNPPDIVVQPGHIRLYVVEKENLPVFPVWVVVGIVTAVVLGLTLLISMILAVLYRRKNSKRDYTGCSTSESLSPVKQAPRKSPSDTEGLVKSLPSGSHQGPVIYAQLDHSGGHHSDKINKSESVVYADIRKN
In the case of B3, the binding is reported as “binds”.

B4: Sodium-coupled neutral amino acid transporter 1 (protein, UniProt Q9H2H9 1-487)
chain: MMHFKSGLELTELQNMTVPEDDNISNDSNDFTEVENGQINSKFISDRESRRSLTNSHLEKKKCDEYIPGTTSLGMSVFNLSNAIMGSGILGLAFALANTGILLFLVLLTSVTLLSIYSINLLLICSKETGCMVYEKLGEQVFGTTGKFVIFGATSLQNTGAMLSYLFIVKNELPSAIKFLMGKEETFSAWYVDGRVLVVIVTFGIILPLCLLKNLGYLGYTSGFSLSCMVFFLIVVIYKKFQIPCIVPELNSTISANSTNADTCTPKYVTFNSKTVYALPTIAFAFVCHPSVLPIYSELKDRSQKKMQMVSNISFFAMFVMYFLTAIFGYLTFYDNVQSDLLHKYQSKDDILILTVRLAVIVAVILTVPVLFFTVRSSLFELAKKTKFNLCRHTVVTCILLVVINLLVIFIPSMKDIFGVVGVTSANMLIFILPSSLYLKITDQDGDKGTQRIWAALFLGLGVLFSLVSIPLVIYDWACSSSSDEGH
With B4 the binding was “binds”.

B5: NADH-cytochrome b5 reductase 1 (enzyme, UniProt Q9UHQ9 1-305)
chain: MGIQTSPVLLASLGVGLVTLLGLAVGSYLVRRSRRPQVTLLDPNEKYLLRLLDKTTVSHNTKRFRFALPTAHHTLGLPVGKHIYLSTRIDGSLVIRPYTPVTSDEDQGYVDLVIKVYLKGVHPKFPEGGKMSQYLDSLKVGDVVEFRGPSGLLTYTGKGHFNIQPNKKSPPEPRVAKKLGMIAGGTGITPMLQLIRAILKVPEDPTQCFLLFANQTEKDIILREDLEELQARYPNRFKLWFTLDHPPKDWAYSKGFVTADMIREHLPAPGDDVLVLLCGPPPMVQLACHPNLDKLGYSQKMRFTY
For B5, the binding was “binds”.

B6: Ganglioside GM2 activator (protein, UniProt P17900 32-193)
chain: SSFSWDNCDEGKDPAVIRSLTLEPDPIIVPGNVTLSVMGSTSVPLSSPLKVDLVLEKEVAGLWIKIPCTDYIGSCTFEHFCDVLDMLIPTGEPCPEPLRTYGLPCHCPFKEGTYSLPKSEFVVPDLELPSWLTTGNYRIESVLSSSGKRLGCIKIAASLKGI
For B6, the binding was “binds”.

B7: TBC1 (Tre2/Bub2/Cdc16) domain family member 10A (protein, UniProt Q9BXI6 1-508)
chain: MAKSNGENGPRAPAAGESLSGTRESLAQGPDAATTDELSSLGSDSEANGFAERRIDKFGFIVGSQGAEGALEEVPLEVLRQRESKWLDMLNNWDKWMAKKHKKIRLRCQKGIPPSLRGRAWQYLSGGKVKLQQNPGKFDELDMSPGDPKWLDVIERDLHRQFPFHEMFVSRGGHGQQDLFRVLKAYTLYRPEEGYCQAQAPIAAVLLMHMPAEQAFWCLVQICEKYLPGYYSEKLEAIQLDGEILFSLLQKVSPVAHKHLSRQKIDPLLYMTEWFMCAFSRTLPWSSVLRVWDMFFCEGVKIIFRVGLVLLKHALGSPEKVKACQGQYETIERLRSLSPKIMQEAFLVQEVVELPVTERQIEREHLIQLRRWQETRGELQCRSPPRLHGAKAILDAEPGPRPALQPSPSIRLPLDAPLPGSKAKPKPPKQAQKEQRKQMKGRGQLEKPPAPNQAMVVAAAGDACPPQHVPPKDSAPKDSAPQDLAPQVSAHHRSQESLTSQESEDTYL
For B7, the binding was “binds”.

B8: Syntaxin-binding protein 3 (protein, UniProt O00186 1-592)
chain: MAPPVAERGLKSVVWQKIKATVFDDCKKEGEWKIMLLDEFTTKLLASCCKMTDLLEEGITVVENIYKNREPVRQMKALYFITPTSKSVDCFLHDFASKSENKYKAAYIYFTDFCPDNLFNKIKASCSKSIRRCKEINISFIPHESQVYTLDVPDAFYYCYSPDPGNAKGKDAIMETMADQIVTVCATLDENPGVRYKSKPLDNASKLAQLVEKKLEDYYKIDEKSLIKGKTHSQLLIIDRGFDPVSTVLHELTFQAMAYDLLPIENDTYKYKTDGKEKEAILEEEDDLWVRIRHRHIAVVLEEIPKLMKEISSTKKATEGKTSLSALTQLMKKMPHFRKQITKQVVHLNLAEDCMNKFKLNIEKLCKTEQDLALGTDAEGQKVKDSMRVLLPVLLNKNHDNCDKIRAILLYIFSINGTTEENLDRLIQNVKIENESDMIRNWSYLGVPIVPQSQQGKPLRKDRSAEETFQLSRWTPFIKDIMEDAIDNRLDSKEWPYCSQCPAVWNGSGAVSARQKPRANYLEDRKNGSKLIVFVIGGITYSEVRCAYEVSQAHKSCEVIIGSTHVLTPKKLLDDIKMLNKPKDKVSLIKDE
B8 was tested, and the binding was “binds”.

B9: Solute carrier family transporter ZIP6 (protein, UniProt Q13433 29-755)
chain: FPQTTEKISPNWESGINVDLAISTRQYHLQQLFYRYGENNSLSVEGFRKLLQNIGIDKIKRIHIHHDHDHHSDHEHHSDHERHSDHEHHSEHEHHSDHDHHSHHNHAASGKNKRKALCPDHDSDSSGKDPRNSQGKGAHRPEHASGRRNVKDSVSASEVTSTVYNTVSEGTHFLETIETPRPGKLFPKDVSSSTPPSVTSKSRVSRLAGRKTNESVSEPRKGFMYSRNTNENPQECFNASKLLTSHGMGIQVPLNATEFNYLCPAIINQIDARSCLIHTSEKKAEIPPKTYSLQIAWVGGFIAISIISFLSLLGVILVPLMNRVFFKFLLSFLVALAVGTLSGDAFLHLLPHSHASHHHSHSHEEPAMEMKRGPLFSHLSSQNIEESAYFDSTWKGLTALGGLYFMFLVEHVLTLIKQFKDKKKKNQKKPENDDDVEIKKQLSKYESQLSTNEEKVDTDDRTEGYLRADSQEPSHFDSQQPAVLEEEEVMIAHAHPQEVYNEYVPRGCKNKCHSHFHDTLGQSDDLIHHHHDYHHILHHHHHQNHHPHSHSQRYSREELKDAGVATLAWMVIMGDGLHNFSDGLAIGAAFTEGLSSGLSTSVAVFCHELPHELGDFAVLLKAGMTVKQAVLYNALSAMLAYLGMATGIFIGHYAENVSMWIFALTAGLFMYVALVDMVPEMLHNDASDHGCSRWGYFFLQNAGMLLGFGIMLLISIFEHKIVFRINF
In the case of B9, the binding is reported as “binds”.

Reference: article PMC10047773
